Measurements taken from patent US11166928B2, “Migraine prevention and treatment” (UNIVERSITATS-KINDERSPITAL, priority 2016, dated 2021).

Tested on: migraine patients
Test: Tolerability, adverse events and palatability in the pilot experiments
Format: in vivo, human
Details: 26 g daily (13 g twice a day)
Source text: (§1) Monthly migraine attack frequency was summarized over the last 3 months and the average was used for baseline comparison. Patients were either instructed to take 26 g LL or 26 g LY in two daily doses (one hour before breakfast and one hour before dinner, respectively) for the duration of 4 weeks. They were instructed to refrain from any other changes in medication or food habits for the duration of that period. The primary outcome measure was changes in days with migraines from baseline. Days with migraine were recorded using a mobile app (myheadache.ch) or a pen and paper diary and averaged across participants.
as §1, with “take 20 g βHB,” for “take”, “They were instructed to refrain from any other changes in medication or food habits for the duration of that period. The primary outcome measure was changes in days with migraines from baseline.” left out
Monthly migraine attack frequency was summarized over the last 3 months and the average was used for baseline comparison. […] Days with migraine were recorded using a mobile app (myheadache.ch) or a pen and paper diary and averaged across participants.

SMILES | Palatability (taste of the powder)
NCCCC[C@H](N)C(=O)O [LY, L-lysine, reference compound] | intolerable
CC(C)C[C@H](N)C(=O)O [LL, L-leucine, reference compound] | intolerable
